Record: PubChem BioAssay AID743121 (NCATS, 2013)
Assay: 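Partners whose loss is lethal together with topoisomerase I blockade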 (primary screen). Cell system: MDA-MB-231 cells, a human breast cancer line. Knock-down reagent: single siRNA against human genes, 20 nM siRNA (0.8 pmol per well). Duration: 120 h (drug added 48 h after transfection, read 72 h later). Treatment: camptothecin 20 nM (about EC30) for 72 h; vehicle 0.1% DMSO in parallel plates. Measured: 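CellTiter-Glo ATP signal, scaled to control siRNA as percent viability; sensitisation given as log2 of untreated divided by camptothecin-treated viability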. Direction: log2 vehicle/camptothecin viability: higher = stronger sensitisation to camptothecin. Active means: 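Each gene scored by redundant siRNA activity (RSA) over its individual siRNA ratios; a gene is called active at p < 0.001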.
Here is a random part of about 26,000 reagents tested. In the full data, 167 (0.63%) are marked active. 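Calls are per gene from RSA p-values that are not deposited; an individual active-marked siRNA can sensitise only weakly.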 Entries without a mark were called inactive. The numbers tell different reagents against one gene apart. Not all columns of the deposit are shown.

{"gene":"DHX57 (DExH-box helicase 57)","reagent":1,"log2 vehicle/camptothecin viability":0.183}
{"gene":"DHX57 (DExH-box helicase 57)","reagent":2,"log2 vehicle/camptothecin viability":-0.0708}
{"gene":"DHX57 (DExH-box helicase 57)","reagent":3,"log2 vehicle/camptothecin viability":-0.667}
{"gene":"DHX57 (DExH-box helicase 57)","reagent":4,"log2 vehicle/camptothecin viability":-0.349}
{"gene":"GRB2 (growth factor receptor bound protein 2)","reagent":1,"log2 vehicle/camptothecin viability":0.342}
{"gene":"GRB2 (growth factor receptor bound protein 2)","reagent":2,"log2 vehicle/camptothecin viability":-0.323}
{"gene":"GRB2 (growth factor receptor bound protein 2)","reagent":3,"log2 vehicle/camptothecin viability":-0.0794}
{"gene":"GRB2 (growth factor receptor bound protein 2)","reagent":4,"log2 vehicle/camptothecin viability":0.16}
{"gene":"LIG4 (DNA ligase 4)","reagent":1,"log2 vehicle/camptothecin viability":-0.601}
{"gene":"LIG4 (DNA ligase 4)","reagent":2,"log2 vehicle/camptothecin viability":-0.196}
{"gene":"LIG4 (DNA ligase 4)","reagent":3,"log2 vehicle/camptothecin viability":-0.822}
{"gene":"LIG4 (DNA ligase 4)","reagent":4,"log2 vehicle/camptothecin viability":-0.549}
{"gene":"CD163 (CD163 molecule)","reagent":1,"log2 vehicle/camptothecin viability":-0.311}
{"gene":"CD163 (CD163 molecule)","reagent":2,"log2 vehicle/camptothecin viability":-0.48}
{"gene":"CD163 (CD163 molecule)","reagent":3,"log2 vehicle/camptothecin viability":-0.142}
{"gene":"CD163 (CD163 molecule)","reagent":4,"log2 vehicle/camptothecin viability":0.137}
{"gene":"KREMEN1 (kringle containing transmembrane protein 1)","reagent":1,"log2 vehicle/camptothecin viability":-0.0314}
{"gene":"KREMEN1 (kringle containing transmembrane protein 1)","reagent":2,"log2 vehicle/camptothecin viability":0.437}
{"gene":"KREMEN1 (kringle containing transmembrane protein 1)","reagent":3,"log2 vehicle/camptothecin viability":0.956}
{"gene":"MTRR","reagent":1,"log2 vehicle/camptothecin viability":-0.149}
{"gene":"MTRR","reagent":2,"log2 vehicle/camptothecin viability":-0.0345}
{"gene":"MTRR","reagent":3,"log2 vehicle/camptothecin viability":-0.101}
{"gene":"MTRR","reagent":4,"log2 vehicle/camptothecin viability":0.0109}

Next part (2 carried over from the part before).
{"gene":"MTRR","reagent":3,"log2 vehicle/camptothecin viability":-0.101}
{"gene":"MTRR","reagent":4,"log2 vehicle/camptothecin viability":0.0109}
{"gene":"PHLDA2 (pleckstrin homology like domain family A member 2)","reagent":1,"log2 vehicle/camptothecin viability":-0.361}
{"gene":"PHLDA2 (pleckstrin homology like domain family A member 2)","reagent":2,"log2 vehicle/camptothecin viability":-0.0186}
{"gene":"PHLDA2 (pleckstrin homology like domain family A member 2)","reagent":3,"log2 vehicle/camptothecin viability":-0.371}
{"gene":"PHLDA2 (pleckstrin homology like domain family A member 2)","reagent":4,"log2 vehicle/camptothecin viability":-0.331}
{"gene":"GPR141 (G protein-coupled receptor 141)","reagent":1,"log2 vehicle/camptothecin viability":-0.212}
{"gene":"GPR141 (G protein-coupled receptor 141)","reagent":2,"log2 vehicle/camptothecin viability":-0.115}
{"gene":"GPR141 (G protein-coupled receptor 141)","reagent":3,"log2 vehicle/camptothecin viability":0.0201}
{"gene":"GPR141 (G protein-coupled receptor 141)","reagent":4,"log2 vehicle/camptothecin viability":-0.0627}
{"gene":"IVD (isovaleryl-CoA dehydrogenase)","reagent":1,"log2 vehicle/camptothecin viability":-0.0576}
{"gene":"IVD (isovaleryl-CoA dehydrogenase)","reagent":2,"log2 vehicle/camptothecin viability":-0.289}
{"gene":"IVD (isovaleryl-CoA dehydrogenase)","reagent":3,"log2 vehicle/camptothecin viability":-0.369}
{"gene":"IVD (isovaleryl-CoA dehydrogenase)","reagent":4,"log2 vehicle/camptothecin viability":-0.603}
{"gene":"MYH9 (myosin heavy chain 9)","reagent":1,"log2 vehicle/camptothecin viability":-0.313}
{"gene":"MYH9 (myosin heavy chain 9)","reagent":2,"log2 vehicle/camptothecin viability":0.14}
{"gene":"MYH9 (myosin heavy chain 9)","reagent":3,"log2 vehicle/camptothecin viability":-0.141}
{"gene":"MAP3K19 (mitogen-activated protein kinase kinase kinase 19)","reagent":1,"log2 vehicle/camptothecin viability":-0.127}
{"gene":"MAP3K19 (mitogen-activated protein kinase kinase kinase 19)","reagent":2,"log2 vehicle/camptothecin viability":0.199}
{"gene":"MAP3K19 (mitogen-activated protein kinase kinase kinase 19)","reagent":3,"log2 vehicle/camptothecin viability":-0.411}
{"gene":"MAP3K19 (mitogen-activated protein kinase kinase kinase 19)","reagent":4,"log2 vehicle/camptothecin viability":0.00209}
{"gene":"MAP3K19 (mitogen-activated protein kinase kinase kinase 19)","reagent":5,"log2 vehicle/camptothecin viability":-0.197}
{"gene":"MAP3K19 (mitogen-activated protein kinase kinase kinase 19)","reagent":6,"log2 vehicle/camptothecin viability":-0.0762}
{"gene":"BBS2 (Bardet-Biedl syndrome 2)","reagent":1,"log2 vehicle/camptothecin viability":0.538}
{"gene":"BBS2 (Bardet-Biedl syndrome 2)","reagent":2,"log2 vehicle/camptothecin viability":0.245}
{"gene":"BBS2 (Bardet-Biedl syndrome 2)","reagent":3,"log2 vehicle/camptothecin viability":0.292}
{"gene":"BBS2 (Bardet-Biedl syndrome 2)","reagent":4,"log2 vehicle/camptothecin viability":-0.0853}
